In US20150110777A1 (PROTHENA BIOSCIENCES, published 2015) one finds binding data, which are given here for two molecules.

Where a chain is given by its changes, count along the chain named. These are yes or no findings as the source states them, for the method shown. Some entries that bind do so weakly or less than the wild type.

Test [1] has as its target T1, human islet-amyloid polypeptide (IAPP) (human).
T1 construct: also called hIAPP; human IAPP
T1 peptide: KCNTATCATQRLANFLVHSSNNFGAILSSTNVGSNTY
The test is described as follows: ELISA on hIAPP, values normalized to h6B8 H2L1. (In general: ELISA stands for enzyme-linked immunosorbent assay.)

In test [2] the target is T1, human islet-amyloid polypeptide (IAPP). The test is described as follows: ELISA screen of hybridomas on hIAPP.

B1: humanized 6B8 H2L1 antibody (antibody, V domains shown)
VH: QVQLQQSGAEVKKPGASVKVSCKASGYTFTSYWMHWVRQRPGQGLEWMGEINPRNGHSNYNEKIRNRVTMTADTSTSTVYMELSSLRSEDTAVYYCTVNRGFYYFFDVWGQGTTVTVSS
VL: DVLMTQSPLSLPVTPGEPASISCRSSQSIAHSNGNTYLEWYLQKPGQSPQLLIYKVSNRFSGVPDRFSGSGSGTDFTLKISRVEAEDVGVYYCFQGSHIPRTFGGGTKLEIKR
notes: Only variable regions are tied to the tested antibody; also called h6B8-H2L1; h6B8 H2L1
Regarding B1, in test [1], the binding result is “binds”.

B2: murine 6B8 antibody (LA21-6B8) (antibody, V domains shown)
VH: QVQLQQPGAELVKPGASVRLSCKASGYTFTSYWMHWVKQRPGQGLEWLGEINPRNGHSNYNEKIRNKATLTADTSSSTVSMQLSSLTSEDSAVYYCTVNRGFYYFFDVWGTGTTVTVSS
VL: B1 VL with T14S, P15L, E17D, P18Q, Q50K, V88L
notes: also called m6B8; mouse 6B8
In the case of B2, the binding result in test [2] is recorded as “binds”.
